Experimental data as given in paper PMC2775740.
These are yes or no findings as the source states them, for the method shown. Some entries that bind do so weakly or less than the wild type.

Sequences of proteins named here, by UniProt entry; tags and fusion partners are left off. Residues count along the entry.
UniProt Q6T8E9, residues 1-272: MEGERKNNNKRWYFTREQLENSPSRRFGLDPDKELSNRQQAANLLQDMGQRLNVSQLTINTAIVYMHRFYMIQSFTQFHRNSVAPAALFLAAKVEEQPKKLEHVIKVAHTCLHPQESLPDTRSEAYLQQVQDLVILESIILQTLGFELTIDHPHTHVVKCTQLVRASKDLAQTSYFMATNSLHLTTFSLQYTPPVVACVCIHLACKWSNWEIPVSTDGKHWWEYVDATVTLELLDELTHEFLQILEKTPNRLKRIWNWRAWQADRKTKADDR
UniProt Q82854, residues 1-67: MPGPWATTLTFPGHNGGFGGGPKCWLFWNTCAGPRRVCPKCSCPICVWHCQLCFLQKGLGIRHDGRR

Target: BD-bT1 (bovine) (UniProt Q6T8E9)
Test: two-hybrid; mammalian two-hybrid in HeLa cells: Tat fused to the mouse NF-κB AD, partner fused to the GAL4 BD, 500 ng of each plasmid and 250 ng pFR-luc; luciferase read-out

Substance: jAD fused to NF-κB AD (from UniProt Q82854 1-67) (domain or fragment)
- binding: binds
